The comparison behind a weaker result is the experiment's own reference, which may not be listed here. Tags and fusion partners may be left off the protein sequences shown.

The target in this data set is T1, VentX (Homo sapiens) (UniProt O95231).
T1 sequence (limits assumed): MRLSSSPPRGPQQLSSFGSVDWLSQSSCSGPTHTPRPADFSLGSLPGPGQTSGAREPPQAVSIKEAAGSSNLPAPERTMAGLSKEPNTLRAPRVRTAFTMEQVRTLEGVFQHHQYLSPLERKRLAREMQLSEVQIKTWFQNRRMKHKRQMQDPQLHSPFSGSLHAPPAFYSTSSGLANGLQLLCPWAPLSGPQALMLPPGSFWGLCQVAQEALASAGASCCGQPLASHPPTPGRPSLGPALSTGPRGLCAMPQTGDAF
Nature of the data set: EMSA. To be noted: interaction largely abrogated by mutation; protein translated in vitro; protein details: pCS2-VentX, TNT reticulocyte lysate; variant of M-CSFR promoter probe wild type. A general note: Mobility shift assays separate free from complexed probe on a gel.

“CTGCGTCTCTAAAATAAGAAGAATAAATTTTTAAAAGATATGC (double strand) [M-CSFR promoter probe mutant]”: the binding result is recorded as “binds more weakly”.

(Values after patent US20140271682, “HUMAN HOMEOBOX GENE VENTX AND MACROPHAGE TERMINAL DIFFERENTIATION AND ACTIVATION, COMPOSITIONS AND METHODS THEREOF” (published 2014).)
